# From the supplement of paper PMC7666118
# The chains behind the UniProt entries cited, without tags or fusion partners. Where a name states a change or a piece, a line headed by the entry shows the natural chain unless it says otherwise.
# UniProt P33121: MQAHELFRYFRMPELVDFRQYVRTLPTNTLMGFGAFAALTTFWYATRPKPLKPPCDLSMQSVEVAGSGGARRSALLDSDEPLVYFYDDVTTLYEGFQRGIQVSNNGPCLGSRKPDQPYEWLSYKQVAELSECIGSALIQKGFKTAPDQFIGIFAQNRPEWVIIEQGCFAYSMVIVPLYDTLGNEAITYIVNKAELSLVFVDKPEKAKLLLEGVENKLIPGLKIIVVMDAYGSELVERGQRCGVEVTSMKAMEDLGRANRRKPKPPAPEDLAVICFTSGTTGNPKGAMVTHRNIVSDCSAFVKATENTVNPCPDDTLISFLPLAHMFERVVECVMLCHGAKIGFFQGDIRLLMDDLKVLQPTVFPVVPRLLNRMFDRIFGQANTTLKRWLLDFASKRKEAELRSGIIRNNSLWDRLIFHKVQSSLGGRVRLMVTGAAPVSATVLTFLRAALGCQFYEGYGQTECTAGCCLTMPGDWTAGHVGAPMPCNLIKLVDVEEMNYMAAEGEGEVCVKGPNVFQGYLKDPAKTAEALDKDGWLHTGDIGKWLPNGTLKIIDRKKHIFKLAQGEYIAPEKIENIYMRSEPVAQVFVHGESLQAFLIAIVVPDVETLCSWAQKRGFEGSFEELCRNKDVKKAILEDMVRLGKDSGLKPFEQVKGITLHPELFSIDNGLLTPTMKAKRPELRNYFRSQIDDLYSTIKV
# UniProt Q9BV57: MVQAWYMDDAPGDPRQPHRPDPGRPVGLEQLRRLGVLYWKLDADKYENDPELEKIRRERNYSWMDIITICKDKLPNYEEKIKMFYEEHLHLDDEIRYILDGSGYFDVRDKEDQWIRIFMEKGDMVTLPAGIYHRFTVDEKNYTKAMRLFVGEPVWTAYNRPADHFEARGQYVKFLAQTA
# UniProt Q9H568: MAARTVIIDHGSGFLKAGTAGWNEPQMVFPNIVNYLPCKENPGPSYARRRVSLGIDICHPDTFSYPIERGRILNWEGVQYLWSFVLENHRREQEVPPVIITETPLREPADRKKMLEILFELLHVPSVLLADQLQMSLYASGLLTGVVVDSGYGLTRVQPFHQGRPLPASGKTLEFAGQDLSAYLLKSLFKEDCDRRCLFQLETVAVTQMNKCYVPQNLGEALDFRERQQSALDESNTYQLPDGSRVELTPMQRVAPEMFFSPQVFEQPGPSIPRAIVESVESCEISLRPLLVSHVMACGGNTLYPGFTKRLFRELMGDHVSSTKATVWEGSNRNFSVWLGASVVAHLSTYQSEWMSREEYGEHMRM
# UniProt Q9NRN7: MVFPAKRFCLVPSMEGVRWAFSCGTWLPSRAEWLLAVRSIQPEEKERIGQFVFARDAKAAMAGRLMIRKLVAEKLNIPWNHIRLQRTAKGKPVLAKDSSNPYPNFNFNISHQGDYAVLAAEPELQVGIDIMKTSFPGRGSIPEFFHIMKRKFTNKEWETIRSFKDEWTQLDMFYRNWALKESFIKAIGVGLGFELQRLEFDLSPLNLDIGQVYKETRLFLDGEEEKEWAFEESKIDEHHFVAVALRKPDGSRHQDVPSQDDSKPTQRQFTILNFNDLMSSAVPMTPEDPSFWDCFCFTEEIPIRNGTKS
# UniProt Q8N2K0: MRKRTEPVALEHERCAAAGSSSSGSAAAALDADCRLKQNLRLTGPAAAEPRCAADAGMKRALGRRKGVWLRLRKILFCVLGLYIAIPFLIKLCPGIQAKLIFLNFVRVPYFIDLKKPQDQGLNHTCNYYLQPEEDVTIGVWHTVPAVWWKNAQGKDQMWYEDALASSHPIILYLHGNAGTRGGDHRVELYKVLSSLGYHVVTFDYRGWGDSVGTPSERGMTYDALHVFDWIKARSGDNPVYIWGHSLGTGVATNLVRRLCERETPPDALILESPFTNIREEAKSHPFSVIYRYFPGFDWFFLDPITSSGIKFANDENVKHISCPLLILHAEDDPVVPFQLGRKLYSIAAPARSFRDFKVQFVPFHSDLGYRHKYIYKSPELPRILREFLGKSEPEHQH
# UniProt Q9UKV3: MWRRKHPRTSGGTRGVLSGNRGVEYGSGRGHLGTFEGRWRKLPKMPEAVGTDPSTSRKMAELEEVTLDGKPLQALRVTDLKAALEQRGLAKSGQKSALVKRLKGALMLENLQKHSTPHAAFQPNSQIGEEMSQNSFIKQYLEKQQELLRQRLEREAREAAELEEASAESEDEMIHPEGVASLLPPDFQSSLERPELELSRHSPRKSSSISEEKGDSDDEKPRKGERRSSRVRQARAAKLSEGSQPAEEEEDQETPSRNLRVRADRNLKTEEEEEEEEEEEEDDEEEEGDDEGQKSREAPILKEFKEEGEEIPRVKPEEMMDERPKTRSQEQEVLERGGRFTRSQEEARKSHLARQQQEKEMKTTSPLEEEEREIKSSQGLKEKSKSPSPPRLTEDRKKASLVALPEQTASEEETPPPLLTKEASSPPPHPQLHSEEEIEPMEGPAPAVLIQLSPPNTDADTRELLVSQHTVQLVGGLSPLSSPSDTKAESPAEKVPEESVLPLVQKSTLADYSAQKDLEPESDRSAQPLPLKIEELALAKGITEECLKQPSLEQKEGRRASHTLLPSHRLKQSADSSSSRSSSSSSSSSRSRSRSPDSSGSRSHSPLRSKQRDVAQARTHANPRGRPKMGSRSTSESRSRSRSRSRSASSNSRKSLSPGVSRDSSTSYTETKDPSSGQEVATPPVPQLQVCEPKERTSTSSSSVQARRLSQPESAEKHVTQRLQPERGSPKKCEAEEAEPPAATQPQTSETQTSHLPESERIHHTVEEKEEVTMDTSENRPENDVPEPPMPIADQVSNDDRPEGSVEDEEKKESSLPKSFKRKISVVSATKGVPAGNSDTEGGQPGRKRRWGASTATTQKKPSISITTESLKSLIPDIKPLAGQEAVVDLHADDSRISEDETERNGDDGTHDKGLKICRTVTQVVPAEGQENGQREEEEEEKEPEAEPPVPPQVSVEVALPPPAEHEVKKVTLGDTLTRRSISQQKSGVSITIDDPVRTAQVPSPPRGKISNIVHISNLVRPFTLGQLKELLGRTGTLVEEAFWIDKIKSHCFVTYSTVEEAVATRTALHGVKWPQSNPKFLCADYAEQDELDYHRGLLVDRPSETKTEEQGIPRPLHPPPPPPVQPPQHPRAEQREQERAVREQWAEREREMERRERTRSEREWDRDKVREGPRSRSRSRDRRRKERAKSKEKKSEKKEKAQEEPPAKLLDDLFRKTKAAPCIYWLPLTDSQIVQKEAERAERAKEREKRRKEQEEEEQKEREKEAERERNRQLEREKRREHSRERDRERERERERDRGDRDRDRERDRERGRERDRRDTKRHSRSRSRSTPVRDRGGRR
# UniProt P14621: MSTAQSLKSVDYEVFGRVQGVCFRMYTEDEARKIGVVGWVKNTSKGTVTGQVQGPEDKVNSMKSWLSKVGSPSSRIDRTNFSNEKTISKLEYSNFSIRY
# UniProt P00519, whole entry: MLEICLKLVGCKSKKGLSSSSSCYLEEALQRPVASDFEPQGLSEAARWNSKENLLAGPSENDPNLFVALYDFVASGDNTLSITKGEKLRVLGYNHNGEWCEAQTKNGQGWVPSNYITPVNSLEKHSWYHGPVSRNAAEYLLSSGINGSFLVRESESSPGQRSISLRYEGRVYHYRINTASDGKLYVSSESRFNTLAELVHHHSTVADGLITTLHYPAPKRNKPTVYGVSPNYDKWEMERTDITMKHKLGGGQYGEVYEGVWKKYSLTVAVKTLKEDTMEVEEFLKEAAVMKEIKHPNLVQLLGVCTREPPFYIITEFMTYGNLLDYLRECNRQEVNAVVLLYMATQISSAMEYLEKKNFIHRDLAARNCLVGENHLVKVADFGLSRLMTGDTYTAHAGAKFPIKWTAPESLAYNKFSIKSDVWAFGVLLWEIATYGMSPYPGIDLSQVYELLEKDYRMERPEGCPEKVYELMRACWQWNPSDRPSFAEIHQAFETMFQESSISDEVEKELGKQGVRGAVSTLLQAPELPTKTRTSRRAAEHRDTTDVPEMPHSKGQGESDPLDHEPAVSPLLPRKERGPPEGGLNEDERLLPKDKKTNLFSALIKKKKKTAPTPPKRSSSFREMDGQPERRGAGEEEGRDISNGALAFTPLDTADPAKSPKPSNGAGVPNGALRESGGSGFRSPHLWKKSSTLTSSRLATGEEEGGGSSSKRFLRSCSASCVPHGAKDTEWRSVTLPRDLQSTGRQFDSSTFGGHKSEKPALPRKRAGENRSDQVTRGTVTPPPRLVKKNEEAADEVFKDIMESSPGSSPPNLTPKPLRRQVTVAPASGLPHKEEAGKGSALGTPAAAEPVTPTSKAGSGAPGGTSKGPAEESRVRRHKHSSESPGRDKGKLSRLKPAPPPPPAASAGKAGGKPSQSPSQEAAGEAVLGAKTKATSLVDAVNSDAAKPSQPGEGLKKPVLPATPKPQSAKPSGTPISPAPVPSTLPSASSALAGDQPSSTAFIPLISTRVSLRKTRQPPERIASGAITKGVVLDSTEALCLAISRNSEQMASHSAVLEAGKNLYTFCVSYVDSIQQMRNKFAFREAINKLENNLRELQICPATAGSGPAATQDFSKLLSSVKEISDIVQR
# UniProt Q9NUB1: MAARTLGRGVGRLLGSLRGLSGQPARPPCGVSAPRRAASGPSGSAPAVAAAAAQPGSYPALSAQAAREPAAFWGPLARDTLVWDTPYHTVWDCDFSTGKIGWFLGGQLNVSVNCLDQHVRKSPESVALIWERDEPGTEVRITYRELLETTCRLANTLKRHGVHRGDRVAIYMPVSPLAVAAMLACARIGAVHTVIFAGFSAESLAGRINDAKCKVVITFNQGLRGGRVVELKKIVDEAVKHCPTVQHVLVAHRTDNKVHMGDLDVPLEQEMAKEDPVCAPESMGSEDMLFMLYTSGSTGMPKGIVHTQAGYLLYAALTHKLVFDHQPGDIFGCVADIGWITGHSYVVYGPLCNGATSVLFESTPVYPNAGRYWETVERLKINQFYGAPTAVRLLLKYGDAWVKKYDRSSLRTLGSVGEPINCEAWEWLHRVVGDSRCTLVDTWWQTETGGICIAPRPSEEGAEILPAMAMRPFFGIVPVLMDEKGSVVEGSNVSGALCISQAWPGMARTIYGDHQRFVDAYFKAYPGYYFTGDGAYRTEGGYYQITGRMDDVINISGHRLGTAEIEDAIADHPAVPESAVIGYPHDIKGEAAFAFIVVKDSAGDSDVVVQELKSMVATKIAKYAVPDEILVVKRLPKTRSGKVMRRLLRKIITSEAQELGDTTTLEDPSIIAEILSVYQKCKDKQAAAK
# UniProt P07311: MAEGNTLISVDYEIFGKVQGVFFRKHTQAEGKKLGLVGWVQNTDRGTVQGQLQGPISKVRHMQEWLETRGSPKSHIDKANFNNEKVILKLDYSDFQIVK
# UniProt Q7Z6V5: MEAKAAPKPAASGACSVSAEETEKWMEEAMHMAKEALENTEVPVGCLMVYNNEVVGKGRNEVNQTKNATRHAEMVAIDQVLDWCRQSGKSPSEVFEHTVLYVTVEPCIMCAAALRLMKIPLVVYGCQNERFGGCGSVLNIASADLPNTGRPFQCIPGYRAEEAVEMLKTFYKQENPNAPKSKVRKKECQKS
# UniProt Q86V21: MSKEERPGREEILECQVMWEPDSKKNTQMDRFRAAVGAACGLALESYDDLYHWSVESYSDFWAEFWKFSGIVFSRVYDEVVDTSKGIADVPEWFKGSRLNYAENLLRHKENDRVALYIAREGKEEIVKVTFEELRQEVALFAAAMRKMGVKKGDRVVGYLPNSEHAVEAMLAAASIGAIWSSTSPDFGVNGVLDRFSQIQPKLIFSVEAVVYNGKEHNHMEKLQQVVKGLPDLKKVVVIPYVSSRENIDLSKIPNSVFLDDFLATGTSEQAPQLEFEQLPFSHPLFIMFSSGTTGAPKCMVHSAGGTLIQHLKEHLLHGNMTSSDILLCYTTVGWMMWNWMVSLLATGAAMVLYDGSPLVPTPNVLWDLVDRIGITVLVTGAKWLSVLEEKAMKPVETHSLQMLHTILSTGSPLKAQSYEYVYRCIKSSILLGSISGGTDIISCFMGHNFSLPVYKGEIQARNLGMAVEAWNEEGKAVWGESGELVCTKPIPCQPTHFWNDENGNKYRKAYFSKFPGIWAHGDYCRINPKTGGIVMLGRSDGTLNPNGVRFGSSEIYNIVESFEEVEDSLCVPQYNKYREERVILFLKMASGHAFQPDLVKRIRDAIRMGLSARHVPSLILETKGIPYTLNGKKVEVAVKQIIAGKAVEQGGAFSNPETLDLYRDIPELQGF
# UniProt Q9NPH0: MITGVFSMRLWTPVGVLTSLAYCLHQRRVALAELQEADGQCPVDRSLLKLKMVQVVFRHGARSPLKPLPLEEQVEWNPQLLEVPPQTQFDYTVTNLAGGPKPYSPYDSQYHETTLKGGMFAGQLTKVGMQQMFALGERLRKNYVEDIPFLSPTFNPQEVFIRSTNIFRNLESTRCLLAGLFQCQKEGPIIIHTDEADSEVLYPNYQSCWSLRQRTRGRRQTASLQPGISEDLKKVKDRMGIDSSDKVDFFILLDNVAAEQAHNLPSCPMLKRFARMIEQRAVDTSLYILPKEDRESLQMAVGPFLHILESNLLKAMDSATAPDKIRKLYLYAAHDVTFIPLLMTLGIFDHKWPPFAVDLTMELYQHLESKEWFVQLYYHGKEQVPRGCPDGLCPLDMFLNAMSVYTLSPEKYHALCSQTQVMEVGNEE
# The other results are listed elsewhere or left out.
# Compound: COc1ccc(Cn2ccc3cc(C)c(C(=O)NO)cc32)cc1
# Assay: dose-dependent thermal stabilisation call (2D-TPP, DLPTP, 10% FDR) (binary (1 = stabilised)); higher = stabilised by the compound
# Details: system: HL-60 intact cells; concentration range 0.04-10 µM
# Procedure: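 2D thermal proteome profiling in intact HL-60 cells treated with BRD-3811 (0, 0.04, 0.29, 2, 10 uM) for 90 min at 37 C, then heated 3 min at one of 12 temperatures (42-63.9 C). Soluble protein was quantified by TMT10 MS. The value is the DLPTP call of the paper: dose-dependent thermal stabilisation over all temperatures at 10% FDR (F-test of a dose-response against a flat model); one experiment, one call per tested protein.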
row,Target,dose-dependent thermal stabilisation call
1,ADH5 (UniProt P11766),inactive: 0
2,ACSL1 (UniProt P33121),inactive: 0
3,ADD1 (UniProt P35611),inactive: 0
4,ADI1 (UniProt Q9BV57),inactive: 0
5,ACACA (UniProt Q13085),inactive: 0
6,ACTL8 (UniProt Q9H568),inactive: 0
7,ABCB10 (UniProt Q9NRK6),inactive: 0
8,ACTL6A (UniProt O96019),inactive: 0
9,ADAM22 (UniProt Q9P0K1),inactive: 0
10,AADACL1 (UniProt Q6PIU2),inactive: 0
11,ADNP (UniProt Q9H2P0),inactive: 0
12,ACVR1B (UniProt P36896),inactive: 0
13,ABCF1 (UniProt Q8NE71),inactive: 0
14,AARS2 (UniProt Q5JTZ9),inactive: 0
15,AASDHPPT (UniProt Q9NRN7),inactive: 0
16,ABHD12 (UniProt Q8N2K0),inactive: 0
17,ACADM (UniProt P11310),inactive: 0
18,ACSL5 (UniProt Q9ULC5),inactive: 0
19,ACSF3 (UniProt Q4G176),inactive: 0
20,ABCF2 (UniProt Q9UG63),inactive: 0

# For reference, some entries already given:
row,Target,dose-dependent thermal stabilisation call
6,ACTL8 (UniProt Q9H568),inactive: 0
7,ABCB10 (UniProt Q9NRK6),inactive: 0
8,ACTL6A (UniProt O96019),inactive: 0

# Going on with the list:

row,Target,dose-dependent thermal stabilisation call
1,ADD3 (UniProt Q9UEY8),inactive: 0
2,ACIN1 (UniProt Q9UKV3),inactive: 0
3,A2LD1 (UniProt Q9BVM4),inactive: 0
4,ACYP2 (UniProt P14621),inactive: 0
5,ABL1 (UniProt P00519),inactive: 0
6,ABCC1 (UniProt P33527),inactive: 0
7,ABCC4 (UniProt O15439),inactive: 0
8,ADO (UniProt Q96SZ5),inactive: 0
9,ADK (UniProt P55263),inactive: 0
10,ACBD6 (UniProt Q9BR61),inactive: 0
11,ACOX1 (UniProt Q15067),inactive: 0
12,ABCD3 (UniProt P28288),inactive: 0
13,ADAT3 (UniProt Q96EY9),inactive: 0
14,ABCB8 (UniProt Q9NUT2),inactive: 0
15,ACSS1 (UniProt Q9NUB1),inactive: 0
16,ACYP1 (UniProt P07311),inactive: 0
17,ADAT2 (UniProt Q7Z6V5),inactive: 0
18,AACS (UniProt Q86V21),inactive: 0
19,ACP6 (UniProt Q9NPH0),inactive: 0
20,ABHD11 (UniProt Q8NFV4),inactive: 0
